Assay results: publication PMC10629681
Changes are numbered by the printed parent chain. Results are given in words; binding and its absence hold for the method and conditions named. In cells and extracts the contact can be indirect. Some entries that bind do so weakly or less than the wild type. Where a sequence is shown, tags or fusion partners need not be part of it.

By UniProt entry, the sequences of proteins in these tests, tags left out.
UniProt P42582: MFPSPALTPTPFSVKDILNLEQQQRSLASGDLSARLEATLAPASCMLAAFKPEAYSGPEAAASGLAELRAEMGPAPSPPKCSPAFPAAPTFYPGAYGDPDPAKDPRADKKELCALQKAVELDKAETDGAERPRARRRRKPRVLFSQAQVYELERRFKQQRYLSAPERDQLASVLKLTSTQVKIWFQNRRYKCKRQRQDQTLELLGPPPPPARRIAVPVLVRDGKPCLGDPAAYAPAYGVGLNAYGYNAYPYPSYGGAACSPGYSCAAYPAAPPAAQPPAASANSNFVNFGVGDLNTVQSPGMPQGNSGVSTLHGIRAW

Key:
[1] = molecular target: T1, Tbx20-GFP (wild-type T-box transcription factor 20) (UniProt Q9ES03); assay: co-IP; GFP-Trap magnetic beads on lysate of HEK293 cells co-expressing Tbx20-GFP (wild type or EH1Mut) and Nkx2-5-V5; lysis buffer 20 mM K-HEPES pH 7.4, 150 mM NaCl, 100 mM KOAc, 2 mM MgCl2, 0.5% NP-40, with nuclease; 1 h at 4°C; Western blotting
T1 sequence: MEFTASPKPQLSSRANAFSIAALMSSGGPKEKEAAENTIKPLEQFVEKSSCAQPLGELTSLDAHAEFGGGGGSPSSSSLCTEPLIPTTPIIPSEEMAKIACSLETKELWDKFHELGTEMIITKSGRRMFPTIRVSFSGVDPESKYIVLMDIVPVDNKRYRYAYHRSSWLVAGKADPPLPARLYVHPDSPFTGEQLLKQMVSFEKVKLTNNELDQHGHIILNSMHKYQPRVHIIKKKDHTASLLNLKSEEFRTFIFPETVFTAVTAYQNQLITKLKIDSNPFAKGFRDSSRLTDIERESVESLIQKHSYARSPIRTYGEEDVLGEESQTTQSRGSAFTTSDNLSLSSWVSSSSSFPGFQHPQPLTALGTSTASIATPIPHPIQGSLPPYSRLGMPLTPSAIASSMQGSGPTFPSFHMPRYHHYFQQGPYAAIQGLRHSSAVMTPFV

[2] = molecular target: T2, Tbx20^EH1MUT-GFP (Tbx20 with the EH1 domain substitutions F18L and S19I) (UniProt Q9ES03); assay: as above
T2 sequence: T1 sequence with F18L, S19I

binding [1]: binds
binding [2]: binds
Substance: Nkx2-5-V5 (from UniProt P42582 1-318)
